About 1,000 (0.3%) of roughly 330,000 compounds were called active. The shares of active, inactive and inconclusive entries below differ from those in the screen. The call rests on the fitted dose curve; in most records, active means well fitted inhibition curve with a large enough effect; inconclusive means small, poorly fitted or top-dose-only effect; inactive means no such curve, though single readings can be large or run the other way; tested in mouse RAW 264.7 cells. Potencies of inconclusive entries are doubtful fits and often do not repeat.
Experiment: qHTS for Inhibitors of Cell Surface uPA Generation; further: nearly all actives have a fitted effect of over 55% in size
Details: cell surface uPA generation assay; series mostly up to 38.3 µM
Outline: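 Murine RAW 264.7 cells are treated for 24 h with compound up to 38.3 uM final. Cell ATP, measured by ATP-Lite, remains high if blocking the uPA cascade prevents LF from reaching the cytoplasm.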
For `COc1ccc(-n2nnnc2S(=O)(=O)CC(=O)N2CCCCC2)cc1`, the Potency was inconclusive: 5.01 µM [inhibitor, single point].
In the case of `O=C(NC(C(=O)N/N=C/c1cc([N+](=O)[O-])ccc1O)c1n[nH]c(=O)c2ccccc12)c1ccccc1` (stereo unspecified), the Potency is reported as “inactive”.
In the case of `Cc1cccc(C(=O)Oc2ccc3ccc(O)cc3c2)c1`, the Potency is reported as inconclusive: 3.16 µM [inhibitor, full curve, poor fit].
With `NC(=O)c1ccsc1NC(=O)c1ccc2c(c1)CCCC2` the Potency was inconclusive: 12.6 µM [inhibitor, partial curve, poor fit].
For `COc1ccc(C2CC(O)(c3ccccc3)Oc3cc(OC)ccc32)cc1` (stereo unspecified), the Potency was inconclusive: 12.6 µM [inhibitor, single point].
In the case of `COc1ccc(/C=C/C(=O)NCCNC(=O)c2ccccc2)cc1OC`, the Potency is reported as inconclusive: 11.2 µM [inhibitor, partial curve, poor fit].
With `CCOC(=O)C1CCN(S(=O)(=O)c2csc(C(N)=O)c2)CC1` the Potency was inconclusive: 0.01 µM [inhibitor, full curve, poor fit].
In the case of `CCOc1ccc(/C=N/Nc2ccc(Cl)nn2)c(O)c1`, the Potency is reported as “inactive”.
For `Cc1ccc(C(=O)Nc2sc3c(c2C(=O)O)CCC(C)C3)o1` (stereo unspecified), the Potency was inconclusive: 2.24 µM [inhibitor, partial curve, poor fit].
In the case of `Cc1c(O)c2c(=O)n(-c3ccccc3)c(-c3ccccc3)cc2oc1=O`, the Potency is reported as “inactive”.
With `COc1ccc(-c2c(C)nn3c(N)c(-c4ccccc4)cnc23)cc1OC` the Potency was inconclusive: 11.2 µM [inhibitor, single point].
For `O=C(Nc1ccc(S(=O)(=O)N2CCCC2)cc1)c1ccc([N+](=O)[O-])o1`, the Potency was inconclusive: 5.01 µM [inhibitor, partial curve, poor fit].
With `CCOc1c2ccc(C(=O)NCC34CC5CC(CC(C5)C3)C4)cc2nn1CC` the Potency was inconclusive: 1.41 µM [inhibitor, full curve].
With `CC(=NCCc1c(C)[nH]c2ccc(OC(F)(F)F)cc12)C1=C(O)CC(c2ccccc2)CC1=O` (stereo unspecified) the Potency was inconclusive: 28.2 µM [inhibitor, partial curve, poor fit].
For `C=C1CCC[C@]2(C)C[C@H]3OC(=O)C(CNCCN(C)C)[C@H]3CC12` (stereo partly specified), the Potency was inconclusive: 12.6 µM [inhibitor, single point].
With `O=C1/C(=C/c2ccccc2[N+](=O)[O-])COc2ccccc21` the Potency was inconclusive: 2.82 µM [inhibitor, single point].
With `CCCCNc1nc(Nc2ccc(C)c(Cl)c2)c2cnn(C)c2n1` the Potency was inconclusive: 7.08 µM [inhibitor, single point].
For `O=C(COC(=O)c1n[nH]c(=O)c2ccccc12)NCc1ccccc1`, the Potency was inconclusive: 5.62 µM [inhibitor, partial curve].
In the case of `Cc1cc(=O)[nH]c(SCC(=O)Nc2ccc3c(c2)OCCO3)n1`, the Potency is reported as “inactive”.
In the case of `CC1CC(C)CN(C(=O)/C=C/c2ccc([N+](=O)[O-])s2)C1` (stereo unspecified), the Potency is reported as active: 3.55 µM.
With `CCN(Cc1nc2cc(Cl)ccc2c(=O)[nH]1)C(=O)c1cc2c(s1)CCCCC2` the Potency was inconclusive: 1 µM [inhibitor, full curve, poor fit].
For `CCN(CC)c1ccc2cc(C(N)=O)/c(=N\NC(=O)c3ccncc3)oc2c1`, the Potency was inconclusive: 5.01 µM [inhibitor, partial curve, poor fit].
In the case of `COc1cccc2sc3ccc(NCc4ccc5c(c4)OCO5)cc3c(=O)c12`, the Potency is reported as inconclusive: 14.1 µM [inhibitor, partial curve, poor fit].
With `CC1(c2ccccc2Cl)NC(=O)N(CC(=O)c2ccc3c(c2)OCO3)C1=O` (stereo unspecified) the Potency was “inactive”.
For `Cc1ccc2nc(-c3cccc(Br)c3)cc(C(=O)Nn3cnnc3)c2c1`, the Potency was inconclusive: 8.91 µM [inhibitor, partial curve, poor fit].
In the case of `O=C(Cc1ccccc1)Nc1nc(-c2cccs2)cs1`, the Potency is reported as “inactive”.
In the case of `O=c1c([N+](=O)[O-])cn(Cc2ccccc2)c(=O)n1Cc1ccccc1`, the Potency is reported as “inactive”.
For `O=C1c2ccccc2NC(c2ccc(-c3cccs3)o2)N1O` (stereo unspecified), the Potency was inconclusive: 5.62 µM [inhibitor, partial curve, poor fit].
In the case of `CC1CCN(c2ccccc2NC(=O)c2ccc(Br)o2)CC1`, the Potency is reported as inconclusive: 3.55 µM [inhibitor, partial curve, poor fit].
In the case of `CC(C)(C)NS(=O)(=O)c1cc(C(=O)Nc2sccc2C#N)ccc1Cl`, the Potency is reported as “inactive”.
In the case of `Cc1ccc(Cn2c(=N)n(CC(=O)c3ccc([N+](=O)[O-])cc3)c3ccccc32)cc1`, the Potency is reported as “inactive”.
In the case of `CCN1CCN(C(=O)CS(=O)Cc2nc(-c3ccc(OC)cc3)oc2C)CC1` (stereo unspecified), the Potency is reported as inconclusive: 12.6 µM [inhibitor, partial curve, poor fit].
With `CCOc1cccc2sc(NC(=O)CC)nc12` the Potency was “inactive”.
In the case of `CCC(=O)NC(c1cccs1)c1cc(Cl)c2cccnc2c1O` (stereo unspecified), the Potency is reported as active: 7.08 µM.
In the case of `CSc1ccc(CN2CCN(C(C)C)C(CCO)C2)cc1` (stereo unspecified), the Potency is reported as “inactive”.
In the case of `CC1CC(C)CN(c2ccc([N+](=O)[O-])nc2)C1` (stereo unspecified), the Potency is reported as inconclusive: 28.2 µM [inhibitor, single point].
For `CCOC(=O)CC1CCCCN1C(=O)c1cc(COc2cccc3cnccc23)on1` (stereo unspecified), the Potency was “inactive”.
With `c1cc2c(cc1C1=NNC(=NC3CC3)SC1)OCCO2` the Potency was inconclusive: 1.26 µM [inhibitor, full curve, poor fit].
For `Cc1cc(NC(=O)c2ccc(F)cc2)n(CCOC(=O)c2ccc(F)cc2)n1`, the Potency was “inactive”.
For `O=C(O)c1c2c(nc3ccccc13)/C(=C/c1ccc(O)cc1)CC2`, the Potency was inconclusive: 4.47 µM [inhibitor, partial curve, poor fit].
For `O=C(Nc1ccc(OC(F)(F)F)cc1)Nc1cccnc1`, the Potency was inconclusive: 6.31 µM [inhibitor, partial curve, poor fit].
With `COC(C[C@H]1O[C@H]1C(=O)[C@H](C)OCc1ccccc1)OC` the Potency was inconclusive: 0.0316 µM [inhibitor, full curve, poor fit].
For `CCc1nc(SCc2ccc(Br)cc2)n[nH]1`, the Potency was “inactive”.
With `NS(=O)(=O)c1ccc(CCNC(=O)c2cc([N+](=O)[O-])ccc2N2CCCCC2)cc1` the Potency was “inactive”.
With `CN(C)CCCNC(=O)c1ccc(-c2nc(-c3ccc(Cl)cc3)cs2)cc1` the Potency was “inactive”.
With `O=c1c(-c2ccc(O)cc2)coc2cc(OC3OC(CO)C(O)C(O)C3O)cc(O)c12` (stereo unspecified) the Potency was active: 4.47 µM.
With `c1ccc(Oc2ncnc3sccc23)cc1` the Potency was “inactive”.
In the case of `COc1ccccc1NC(=O)CSc1nc2ccccc2c(=O)n1C`, the Potency is reported as inconclusive: 12.6 µM [inhibitor, single point].
With `CC(C)(C)OC(=O)NCCC(=O)N/N=C/c1cccc2cccnc12` the Potency was “inactive”.
With `O=C(CN1C(=O)c2ccccc2S1(=O)=O)Nc1ccon1` the Potency was “inactive”.
For `CCN(CC)c1ccc(C(=C2C=CC(=[N+](CC)CC)C=C2)c2ccc(S(=O)(=O)O)cc2S(=O)(=O)[O-])cc1`, the Potency was inconclusive: 7.08 µM [inhibitor, partial curve, poor fit].
In the case of `CC(=O)OCC(OC(C)=O)C(OC(C)=O)C(OC(C)=O)C(=O)Nc1ccccc1` (stereo unspecified), the Potency is reported as “inactive”.
In the case of `Cc1cc(C)cc(NS(=O)(=O)c2ccc3c(c2)c(=O)n(C)c(=O)n3C)c1`, the Potency is reported as inconclusive: 10 µM [inhibitor, partial curve, poor fit].
With `CCOc1cc([N+](=O)[O-])cc2c1C(=O)Nc1ccccc1O2` the Potency was inconclusive: 2 µM [inhibitor, partial curve].
In the case of `COc1ccc(C(=O)Nc2ccc(CN3CCOCC3)cc2)cc1Br`, the Potency is reported as inconclusive: 31.6 µM [inhibitor, partial curve, poor fit].
With `COc1cc2ccccc2cc1C(=O)Nc1ccc(Cc2ccncc2)cc1` the Potency was “inactive”.
For `O=C(COCCOCC(=O)N(c1ccccn1)C1CCCCC1)N(c1ccccn1)C1CCCCC1`, the Potency was “inactive”.
With `COc1ccc(CCn2c(NN=C(C)C)nc3c2c(=O)[nH]c(=O)n3C)cc1` the Potency was inconclusive: 11.2 µM [inhibitor, single point].
In the case of `O=C(/C=C/c1ccccc1)NCCc1ccccc1`, the Potency is reported as inconclusive: 12.6 µM [inhibitor, single point].
With `O=C1OC(NC(=O)c2ccccc2)C(n2cc(CO)nn2)=C1Cl` (stereo unspecified) the Potency was “inactive”.
In the case of `COc1cccc(/C=N/NC(=O)Cn2nc(C)c([N+](=O)[O-])c2C)c1O`, the Potency is reported as “inactive”.
In the case of `O=C(Nc1ccccc1OC(F)F)c1ccc(S(=O)(=O)N2CCOCC2)cc1`, the Potency is reported as “inactive”.
In the case of `CCOc1ccc(C(=O)Nc2ccc3[nH]ncc3c2)cc1`, the Potency is reported as active: 5.01 µM.
For `Cc1cccc2c1NC(=O)C2(c1ccc(O)cc1)c1ccc(O)cc1`, the Potency was “inactive”.
With `CC(C)n1nnnc1SCC(=O)Nc1cccc(F)c1` the Potency was “inactive”.
For `Cc1ccc(CNC(=O)Cn2ccc3cc(S(=O)(=O)N4CCCCCC4)ccc32)cc1`, the Potency was inconclusive: 1.41 µM [inhibitor, full curve].
For `O=C(Nc1ccc([N+](=O)[O-])cc1)c1ccc(Cn2cc([N+](=O)[O-])cn2)cc1`, the Potency was inconclusive: 14.1 µM [inhibitor, partial curve, poor fit].
With `Oc1ccc2c(c1)oc1cc(O)ccc12` the Potency was inconclusive: 3.98 µM [inhibitor, partial curve].
For `CCC[C@@H](CNC)NC[C@H](Cc1ccccc1)NCCCCc1ccccc1`, the Potency was inconclusive: 7.94 µM [inhibitor, single point].
For `Cc1cccc(C(=O)Nc2nc(C)c(C(=O)Nc3ccc4c(c3)CCC4)s2)c1`, the Potency was inconclusive: 8.91 µM [inhibitor, single point].
For `CC(C)(CN1CCC(Cc2ccccc2)CC1)NS(=O)(=O)c1ccccc1`, the Potency was inconclusive: 7.94 µM [inhibitor, single point].

— PubChem BioAssay AID540303 (National Center for Advancing Translational Sciences (NCATS), 2011)
Potency means the concentration at half of the fitted maximal effect.
